The values that follow come from publication PMC2955532.

Protein sequences, listed by entry. Tags and fused reporters are not part of them. Residues count along the entry.
UniProt P21926: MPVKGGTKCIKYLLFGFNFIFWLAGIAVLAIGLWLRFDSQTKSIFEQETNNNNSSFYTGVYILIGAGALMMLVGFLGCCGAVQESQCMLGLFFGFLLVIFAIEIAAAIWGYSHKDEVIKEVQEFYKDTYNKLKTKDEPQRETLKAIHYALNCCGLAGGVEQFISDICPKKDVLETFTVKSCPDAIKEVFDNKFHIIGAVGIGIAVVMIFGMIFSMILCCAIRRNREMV
UniProt P05362, residues 28-532: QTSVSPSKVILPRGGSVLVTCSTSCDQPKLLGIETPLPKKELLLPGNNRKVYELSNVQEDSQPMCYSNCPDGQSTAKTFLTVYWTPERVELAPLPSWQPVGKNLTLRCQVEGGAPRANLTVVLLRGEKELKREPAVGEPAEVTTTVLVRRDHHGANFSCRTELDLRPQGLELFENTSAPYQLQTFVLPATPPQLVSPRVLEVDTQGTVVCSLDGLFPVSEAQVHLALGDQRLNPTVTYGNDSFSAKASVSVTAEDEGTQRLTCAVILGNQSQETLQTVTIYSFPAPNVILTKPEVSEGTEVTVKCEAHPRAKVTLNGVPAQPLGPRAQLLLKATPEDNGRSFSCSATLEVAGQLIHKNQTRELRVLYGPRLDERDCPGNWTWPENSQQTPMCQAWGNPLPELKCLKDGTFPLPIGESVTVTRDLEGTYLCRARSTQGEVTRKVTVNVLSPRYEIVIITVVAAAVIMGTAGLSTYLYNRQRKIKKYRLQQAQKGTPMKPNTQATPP
UniProt P05106, residues 27-788: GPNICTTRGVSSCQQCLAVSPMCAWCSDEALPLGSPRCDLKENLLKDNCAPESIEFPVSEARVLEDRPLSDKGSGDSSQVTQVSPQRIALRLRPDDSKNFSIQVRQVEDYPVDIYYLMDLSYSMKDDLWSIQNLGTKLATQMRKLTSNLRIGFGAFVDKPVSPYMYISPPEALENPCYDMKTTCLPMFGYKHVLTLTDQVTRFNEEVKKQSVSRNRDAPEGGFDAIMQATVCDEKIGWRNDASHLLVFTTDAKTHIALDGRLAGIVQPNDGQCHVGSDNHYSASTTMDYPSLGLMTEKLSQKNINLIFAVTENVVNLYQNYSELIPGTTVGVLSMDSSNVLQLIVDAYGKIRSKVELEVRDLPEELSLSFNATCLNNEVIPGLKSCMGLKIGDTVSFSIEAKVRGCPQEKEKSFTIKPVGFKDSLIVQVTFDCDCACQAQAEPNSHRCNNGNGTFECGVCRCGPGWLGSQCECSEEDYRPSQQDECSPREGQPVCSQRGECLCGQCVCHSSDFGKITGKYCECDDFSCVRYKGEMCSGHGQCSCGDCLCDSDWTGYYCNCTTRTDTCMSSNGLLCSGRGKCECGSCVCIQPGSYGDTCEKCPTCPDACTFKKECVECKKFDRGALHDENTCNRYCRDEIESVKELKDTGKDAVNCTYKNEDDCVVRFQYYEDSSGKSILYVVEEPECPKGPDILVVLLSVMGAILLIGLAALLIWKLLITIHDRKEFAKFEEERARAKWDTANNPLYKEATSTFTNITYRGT

What all share (assay): co-IP; confluent primary EEC monolayers lysed in Tris-buffered saline with 1% Brij 96, 1 mM CaCl2, 1 mM MgCl2 and protease inhibitors; 5 µg antibody coupled to protein-G-Sepharose; six washes with lysis buffer; non-reducing SDS-PAGE and Western blot; non-immune Ig as negative control
In general terms: In western blotting, separated proteins are transferred to a membrane and probed.

Test [1] concerns the target tetraspanin CD9 (human (endogenous in primary EEC)) (UniProt P21926).
Test [2] has as its target ICAM-1 (human (endogenous in primary EEC)) (UniProt P05362).
Test [3] deals with β3 integrin (human (endogenous in primary EEC)) (UniProt P05106).

These are yes or no findings as the source states them, for the method shown. In cells and extracts the contact can be indirect. Some results given as binding are weak or reduced against the parent protein; the word gives no strength.

With “CD98 heavy chain (from UniProt P08195 1-529)”, the results for the binding entry in test [1], in test [2] and in test [3] were “binds”, “no binding” and “binds weakly”, respectively.

Take “tetraspanin CD9 (from UniProt P21926 1-228)”: the binding entry in test [2] is on record as “binds”.
